Test results reported in PMC8304497.
These are yes or no findings as the source states them, for the method shown. Binding seen in cells or lysates may run through a third protein. A yes stands for co-enrichment or nearness to the bait. Other partners may have been found.

T1: Neuronal cell adhesion molecule 2 (NCAM2) (mouse (endogenous in cerebral cortex)) (UniProt O35136)
T1 sequence: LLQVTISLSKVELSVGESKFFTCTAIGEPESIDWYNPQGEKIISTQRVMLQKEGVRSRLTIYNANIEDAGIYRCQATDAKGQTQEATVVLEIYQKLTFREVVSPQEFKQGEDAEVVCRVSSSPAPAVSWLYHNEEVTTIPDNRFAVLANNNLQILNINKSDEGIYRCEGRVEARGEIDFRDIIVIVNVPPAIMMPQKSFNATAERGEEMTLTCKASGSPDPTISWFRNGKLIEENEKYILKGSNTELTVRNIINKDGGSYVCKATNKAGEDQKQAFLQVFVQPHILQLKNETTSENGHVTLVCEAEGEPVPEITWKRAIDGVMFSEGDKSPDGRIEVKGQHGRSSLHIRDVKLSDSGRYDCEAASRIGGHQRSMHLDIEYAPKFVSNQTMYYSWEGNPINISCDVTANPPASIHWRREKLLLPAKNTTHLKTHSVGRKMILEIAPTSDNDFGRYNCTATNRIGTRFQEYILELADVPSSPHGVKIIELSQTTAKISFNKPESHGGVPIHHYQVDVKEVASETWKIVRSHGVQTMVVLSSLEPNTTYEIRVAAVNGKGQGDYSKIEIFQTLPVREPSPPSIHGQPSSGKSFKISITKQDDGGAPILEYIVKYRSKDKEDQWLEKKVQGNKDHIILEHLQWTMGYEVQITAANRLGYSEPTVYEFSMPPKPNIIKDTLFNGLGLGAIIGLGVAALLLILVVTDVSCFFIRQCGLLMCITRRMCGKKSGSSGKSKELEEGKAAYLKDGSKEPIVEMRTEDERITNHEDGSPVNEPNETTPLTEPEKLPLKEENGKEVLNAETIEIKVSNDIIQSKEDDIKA


Target: T1, Neuronal cell adhesion molecule 2 (NCAM2) (mouse (endogenous in cerebral cortex))
Assay: affinity purification with mass spectrometry; NCAM2 precipitated from the membrane fraction (lysis buffer with 1% Triton X-100, 150 mM NaCl) of postnatal mouse cortex with magnetic beads conjugated with anti-NCAM2.1 (EB06991) or anti-NCAM2 (AF778), o/n at 4 °C; urea elution, trypsin, LC-MS/MS, FDR ≤ 0.01%; control: non-conjugated beads

| binding | Binder |
| --- | --- |
| binds | Haptoglobin (protein, UniProt Q61646 19-347) VELGNDAMDFEDDSCPKPPEIANGYVEHLVRYRCRQFYRLRAEGDGVYTLNDEKQWVNTVAGEKLPECEAVCGKPKHPVDQVQRIIGGSMDAKGSFPWQAKMISRHGLTTGATLISDQWLLTTAKNLFLNHSETASAKDITPTLTLYVGKNQLVEIEKVVLHPNHSVVDIGLIKLKQRVLVTERVMPICLPSKDYIAPGRVGYVSGWGRNANFRFTDRLKYVMLPVADQDKCVVHYENSTVPEKKNLTSPVGVQPILNEHTFCAGLTKYQEDTCYGDAGSAFAIHDMEEDTWYAAGILSFDKSCAVAEYGVYVRATDLKDWVQETMAKN |
| binds | Inter-alpha-trypsin inhibitor heavy chain H3 (protein, UniProt Q61704 34-649) SLPEGVVDGIEVYSTKISCKVTSRFAHNVVTTRAVNRADTAKEVSFDVELPKTAFITNFTLTIDGVTYPGNVKEKEVAQKQYEKAVSQGKTAGLVKASGRKLEKFTVSVNVAAGSKVTFELTYEELLKRNKGKYEMYLKVQPKQLVRHFEIDAHIFEPQGISMLDAEASFITNDLLGSALTKSFSGKKGHVSFKPSLDQQRSCPTCTDSLLNGDFTIVYDVNRESPGNVQIVNGYFVHFFAPQGLPVVPKNIVFVIDVSGSMSGRKIQQTREALLKILDDVKEDDYLNFILFSTDVTTWKDHLVQATPANLKEAKTFVKNIHDQSMTNINDGLLKGIEMLNKAREDHTVPERSTSIIIMLTDGDANTGESRPEKIQENVRNAIGGKFPLYNLGFGNNLNYNFLETLALENHGLARRIYEDSDANLQLQGFYEEVANPLLTNVEVEYPENAILDLTRNSYPHFYDGSEIVVAGRLVDRNMDNFKADVKGHGALNDLTFTEEVDMEEMDAALKEQGYIFGDYIERLWAYLTIEQLLEKRKNAKGDEKENITAEALDLSLKYHFVTPLTSMVVTKPEDNEDQTSIADKPGEEAIAETTTMSFLTTQQSSQSPYYYVDGD |
| binds | Ataxin-10 (protein, UniProt P28658 1-475) MAAPRMPPSRLSGIMVPAPIQDLEALRALTALFKEQRNRETAPRTIFQRVLDILKKSTHAVELACRDPSQVEHLASSLQLITECFRCLRNACIECSVNQNSIRNLDTIGVAVDLVLLFRELRVEQDSLLTAFRCGLQFLGNVASRNEESQSIVWVHAFPELFMSCLNHPDKKIVAYCSMILFTSLNAERMKDLEENLNIAINVIEAHQKHPASEWPFLIISDHFLKSPELVEAMYGKLSNQERITLLDIVIAKLVGEEQLTKDDISIFVRHAELIANSFMDQCRNVLKLTSEPHTEDKEALVTIRLLDVLCEMTSNTELLGYLQVFPGLMERVIDVLRVIHEVGKESTNIFSPSDSLKAEGDIEHMTEGFKSHLIRLIGNLCYKNKENQDKVNELDGIPLILDSSNIDDNNPFMMQWVVYAVRNLTEDNSQNQDVIAKMEEQGLADASLLKKMGFEIEKSGDKLILKSNNDIPPP |
| binds | Alpha-internexin (protein, UniProt P46660 1-501) MSFGSEHYLCSASSYRKVFGDSSRLSARLSGPGGSGSFRSQSLSRSNVASTAACSSASSLGLGLAYRRLPASDGLDLSQAAARTNEYKIIRTNEKEQLQGLNDRFAVFIEKVHQLETQNRALEAELAALRQRHAEPSRVGELFQRELRELRAQLEEASSARAQALLERDGLAEEVQRLRARCEEESRGREGAERALKAQQRDVDGATLARLDLEKKVESLLDELAFVRQVHDEEVAELLATLQASSQAAAEVDVAVAKPDLTSALREIRAQYESLAAKNLQSAEEWYKSKFANLNEQAARSTEAIRASREEIHEYRRQLQARTIEIEGLRGANESLERQILELEERHSAEVAGYQDSIGQLESDLRNTKSEMARHLREYQDLLNVKMALDIEIAAYRKLLEGEETRFSTGGLSISGLNPLPNPSYLLPPRILSSTASKVSSAGLSLKKEEEEEEEEASKEVSKKTSKVGEGFEETLGEAVISTKKTGKSATEESTSSSQKM |
| binds | Ywhag (protein, UniProt P61982 1-247) MVDREQLVQKARLAEQAERYDDMAAAMKNVTELNEPLSNEERNLLSVAYKNVVGARRSSWRVISSIEQKTSADGNEKKIEMVRAYREKIEKELEAVCQDVLSLLDNYLIKNCSETQYESKVFYLKMKGDYYRYLAEVATGEKRATVVESSEKAYSEAHEISKEHMQPTHPIRLGLALNYSVFYYEIQNAPEQACHLAKTAFDDAIAELDTLNEDSYKDSTLIMQLLRDNLTLWTSDQQDDDGGEGNN |
| binds | Ubiquitin-protein ligase E3B (enzyme, UniProt Q9ES34 1-1070) MFTVSQTSRAWFIDRARQAREERLVQKERERSAVTIQALVRSFLCRRRLHRDIRKEIDEFFSADESGSSKRSALCIFKIARRLLFICKTTEDSERLEKLCRSILNSMDAENEPKVWYVSLALSKDLTLLWIKQIKSILWHCCELLGQLKPEILQDSRLITLYLTMLVTFTDTSTWKILRGKGESLRPALNHICANIMGHLNQRGLYSVLQVLLTRGLARPRPCLSKGMLTAAFSLALRPVVAAQFSDNLMRPFIIHVMSVPALVAHLSTVAPERLGVLESHDMLRKFIVFLRDRDRCRDACESLEGCHTLCLMGNLLHLGSLSLRLLEEEMDGFVSALTQMLCYCQKYVAQKKSNLTHWHPVLGWFSQPVDYGLNDSMYLITKQLQFLWAVPLIRILFSDILSRKLLEHAEPAPVQPQPSSPQTVLPVKSLLKRAFQKSASVRNILRPVGGRRVDSAEVRKVCNICVLYQTSLTTLTQIRLQILTGLTYLDDLLPKLWAFICELGPHGGLKLFLECLNNDTGESKQLLAMLMLFCDCSRHLITILDDIEVYEEQISFKLEELVTISSFLNSFVFKMIWDGIVENAKGETLELFQSVHGWLMVLYERDCRRRFAPEDHWLRRDLKPGVLFQELDKDRRRAQLVLQHIPHVVPHKNRVLLFRNMVIKEKEKLGLVETSSASPHVTHITIRRSRMLEDGYEQLRQLSQHAMKGVIRVKFVNDLGVDEAGIDQDGVFKEFLEEIIKRVFDPALNLFKTTSGDERLYPSPTSYIHENYLQLFEFVGKMLGKAVYEGIVVDVPFASFFLSQMLGHHHSVFYSSVDELPSLDSEFYKNLTSIKRYDGDIADLGLTLSYDEDVMGQLVCHELVPGGKTIPVTDENKISYIHLMAHFRMHTQIKNQTAALISGFRSIIKPEWIRMFSTPELQRLISGDNAEIDLEDLKKHTVYYGGFHGSHRVIIWLWDILASDFTPEERAMFLKFVTSCSRPPLLGFAYLKPPFSIRCVEVSDDQDTGDTLGSVLRGFFTIRKREPGGRLPTSSTCFNLLKLPNYSKKSVLREKLRYAISMNTGFELS |
| binds | Neurofilament medium polypeptide (protein, UniProt P08553 1-848) MSYTLDSLGNPSAYRRVTETRSSFSRVSGSPSSGFRSQSWSRGSPSTVSSSYKRSALAPRLAYSSAMLSSAESSLDFSQSSSLLNGGSGGDYKLSRSNEKEQLQGLNDRFAGYIEKVHYLEQQNKEIEAEIQALRQKQASHAQLGDAYDQEIRELRATLEMVNHEKAQVQLDSDHLEEDIHRLKERFEEEARLRDDTEAAIRALRKDIEESSMVKVELDKKVQSLQDEVAFLRSNHEEEVADLLAQIQASHITVERKDYLKTDISTALKEIRSQLECHSDQNMHQAEEWFKCRYAKLTEAAEQNKEAIRSAKEEIAEYRRQLQSKSIELESVRGTKESLERQLSDIEERHNHDLSSYQDTIQQLENELRGTKWEMARHLREYQDLLNVKMALDIEIAAYRKLLEGEETRFSTFSGSITGPLYTHRQPSVTISSKIQKTKVEAPKLKVQHKFVEEIIEETKVEDEKSEMEETLTAIAEELAASAKEEKEEAEEKEEEPEAEKSPVKSPEAKEEEEEGEKEEEEEGQEEEEEEDEGVKSDQAEEGGSEKEGSSEKDEGEQEEEEGETEAEGEGEEAEAKEEKKIEGKVEEVAVKEEIKVEKPEKAKSPMPKSPVEEVKPKPEAKAGKGEQKEEEKVEEEKKEVTKESPKEEKVEKKEEKPKDVADKKKAESPVKEKAVEEVITISKSVKVSLEKDTKEEKPQPQEKVKEKAEEEGGSEEEGSDRSPQESKKEDIAINGEVEGKEEEEQETQEKGSGREEEKGVVTNGLDVSPAEEKKGEDSSDDKVVVTKKVEKITSEGGDGATKYITKSVTVTQKVEEHEETFEEKLVSTKKVEKVTSHAIVKEVTQGD |
| binds | Ras-related protein Rab-33A (protein, UniProt P97950 1-237) MAQPILGHGSLQPASAAGLASLELDSSMDQYVQIRIFKIIVIGDSNVGKTCLTFRFCGGTFPDKTEATIGVDFREKTVEIEGEKIKVQVWDTAGQERFRKSMVEHYYRNVHAVVFVYDVTKMTSFTNLKMWIQECNGHAVPPLVPKVLVGNKCDLREQIQVPSNLALKFADAHNMLLFETSAKDPKESQNVESIFMCLACRLKAQKSLLYRDAERQQGKVQKLEFSQEANGKASCPC |
